# Test results taken from the supplement of paper PMC12819154, “High-throughput peptide-centric local stability assay extends protein–ligand identification to membrane proteins, tissues and bacteria” (Nature Structural & Molecular Biology, 2025).
# Sequences of proteins named here, by UniProt entry; tags and fusion partners are left off. A change or cut given only in a name is not applied to a line headed by its entry.
# UniProt Q8VCE4: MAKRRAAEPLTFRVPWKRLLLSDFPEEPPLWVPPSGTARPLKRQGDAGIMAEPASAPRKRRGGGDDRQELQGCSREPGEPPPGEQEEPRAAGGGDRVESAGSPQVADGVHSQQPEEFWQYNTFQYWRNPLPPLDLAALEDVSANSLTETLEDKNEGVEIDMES
# UniProt Q8VDS3, whole entry: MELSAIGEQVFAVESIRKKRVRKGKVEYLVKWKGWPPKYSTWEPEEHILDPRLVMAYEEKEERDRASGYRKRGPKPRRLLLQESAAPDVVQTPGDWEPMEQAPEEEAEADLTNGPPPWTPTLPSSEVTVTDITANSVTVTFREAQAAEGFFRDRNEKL
# UniProt Q8R331, whole entry: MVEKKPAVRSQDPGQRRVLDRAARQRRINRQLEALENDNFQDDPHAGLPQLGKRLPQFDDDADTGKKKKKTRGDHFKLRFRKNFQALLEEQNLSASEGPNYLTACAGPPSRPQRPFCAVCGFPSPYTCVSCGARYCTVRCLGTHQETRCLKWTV
# UniProt Q8R307: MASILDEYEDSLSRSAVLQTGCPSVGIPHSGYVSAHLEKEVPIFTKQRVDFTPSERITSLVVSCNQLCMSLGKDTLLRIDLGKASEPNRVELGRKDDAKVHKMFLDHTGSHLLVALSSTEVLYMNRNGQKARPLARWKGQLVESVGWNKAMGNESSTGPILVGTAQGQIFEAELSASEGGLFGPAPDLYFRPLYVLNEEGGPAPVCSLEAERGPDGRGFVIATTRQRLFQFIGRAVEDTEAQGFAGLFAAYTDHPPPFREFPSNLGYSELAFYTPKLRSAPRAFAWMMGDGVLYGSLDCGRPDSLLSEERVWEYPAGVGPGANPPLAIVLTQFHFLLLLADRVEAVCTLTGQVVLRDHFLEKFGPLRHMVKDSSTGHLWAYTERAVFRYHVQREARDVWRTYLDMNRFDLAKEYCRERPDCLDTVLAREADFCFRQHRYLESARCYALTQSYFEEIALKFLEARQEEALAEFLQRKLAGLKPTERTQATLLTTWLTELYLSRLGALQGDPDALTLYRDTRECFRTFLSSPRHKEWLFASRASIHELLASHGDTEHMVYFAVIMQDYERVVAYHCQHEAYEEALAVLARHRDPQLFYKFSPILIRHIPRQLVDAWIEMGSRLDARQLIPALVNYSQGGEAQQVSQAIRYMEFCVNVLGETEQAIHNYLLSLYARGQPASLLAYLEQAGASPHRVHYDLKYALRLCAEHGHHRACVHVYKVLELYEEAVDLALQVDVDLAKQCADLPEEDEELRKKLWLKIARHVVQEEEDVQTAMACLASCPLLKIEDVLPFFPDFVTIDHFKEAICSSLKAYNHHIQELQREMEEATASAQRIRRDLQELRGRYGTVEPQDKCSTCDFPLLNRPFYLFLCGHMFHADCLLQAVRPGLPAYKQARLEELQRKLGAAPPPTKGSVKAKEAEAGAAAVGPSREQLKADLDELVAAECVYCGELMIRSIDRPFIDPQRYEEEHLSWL
# UniProt Q8R367: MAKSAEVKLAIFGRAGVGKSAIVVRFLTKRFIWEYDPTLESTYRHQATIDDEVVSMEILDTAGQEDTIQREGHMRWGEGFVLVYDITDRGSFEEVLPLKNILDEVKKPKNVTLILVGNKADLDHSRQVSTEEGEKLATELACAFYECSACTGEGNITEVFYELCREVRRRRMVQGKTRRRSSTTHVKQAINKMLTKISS
# UniProt Q8VDU0: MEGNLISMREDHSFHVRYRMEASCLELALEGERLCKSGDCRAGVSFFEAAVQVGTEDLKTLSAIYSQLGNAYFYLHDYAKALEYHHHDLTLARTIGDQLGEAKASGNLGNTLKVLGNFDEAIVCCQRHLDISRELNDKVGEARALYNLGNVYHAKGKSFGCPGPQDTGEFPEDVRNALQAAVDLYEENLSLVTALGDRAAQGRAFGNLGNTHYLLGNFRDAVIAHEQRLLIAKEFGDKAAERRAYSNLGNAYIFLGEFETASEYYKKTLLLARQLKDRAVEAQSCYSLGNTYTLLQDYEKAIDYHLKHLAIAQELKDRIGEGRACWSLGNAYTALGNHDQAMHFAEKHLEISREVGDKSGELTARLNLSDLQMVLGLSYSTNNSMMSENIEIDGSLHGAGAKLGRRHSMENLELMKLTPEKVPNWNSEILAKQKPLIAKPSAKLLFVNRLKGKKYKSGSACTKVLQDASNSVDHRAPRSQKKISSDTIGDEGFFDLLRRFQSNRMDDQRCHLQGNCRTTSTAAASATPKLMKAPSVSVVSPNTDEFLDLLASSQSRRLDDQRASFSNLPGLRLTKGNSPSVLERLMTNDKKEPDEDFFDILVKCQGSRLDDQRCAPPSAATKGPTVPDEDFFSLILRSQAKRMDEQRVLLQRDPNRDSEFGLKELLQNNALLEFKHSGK
# UniProt Q8R395: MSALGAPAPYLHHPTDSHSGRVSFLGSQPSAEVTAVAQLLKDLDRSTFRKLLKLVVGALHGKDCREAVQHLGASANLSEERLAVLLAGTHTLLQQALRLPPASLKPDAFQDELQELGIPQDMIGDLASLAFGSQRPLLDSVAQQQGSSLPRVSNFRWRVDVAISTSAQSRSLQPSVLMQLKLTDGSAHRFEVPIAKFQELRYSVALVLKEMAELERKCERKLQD
# UniProt Q8R3H9: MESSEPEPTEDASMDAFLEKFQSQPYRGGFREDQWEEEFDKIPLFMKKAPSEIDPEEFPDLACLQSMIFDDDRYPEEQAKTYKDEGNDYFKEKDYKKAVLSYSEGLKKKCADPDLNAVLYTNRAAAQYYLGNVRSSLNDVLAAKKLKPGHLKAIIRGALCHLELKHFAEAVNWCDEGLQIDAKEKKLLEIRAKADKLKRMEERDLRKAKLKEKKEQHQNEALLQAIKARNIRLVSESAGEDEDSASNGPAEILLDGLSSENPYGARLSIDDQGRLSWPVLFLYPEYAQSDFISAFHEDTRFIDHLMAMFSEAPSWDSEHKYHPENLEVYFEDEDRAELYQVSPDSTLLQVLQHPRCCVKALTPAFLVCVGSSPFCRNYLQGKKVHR
# UniProt Q8VDD8: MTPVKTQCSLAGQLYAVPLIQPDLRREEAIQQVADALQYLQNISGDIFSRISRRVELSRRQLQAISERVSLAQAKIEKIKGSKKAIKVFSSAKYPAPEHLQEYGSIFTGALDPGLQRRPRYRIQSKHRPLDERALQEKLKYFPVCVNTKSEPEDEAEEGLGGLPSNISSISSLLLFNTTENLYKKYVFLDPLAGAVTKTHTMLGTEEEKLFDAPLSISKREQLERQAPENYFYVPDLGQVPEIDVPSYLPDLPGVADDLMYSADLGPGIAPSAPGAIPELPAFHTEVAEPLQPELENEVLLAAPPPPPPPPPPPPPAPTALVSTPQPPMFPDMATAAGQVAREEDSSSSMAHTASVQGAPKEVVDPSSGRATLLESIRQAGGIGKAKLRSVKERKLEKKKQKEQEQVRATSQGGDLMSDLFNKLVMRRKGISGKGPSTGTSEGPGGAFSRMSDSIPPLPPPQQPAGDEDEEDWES
# UniProt Q8VCA6: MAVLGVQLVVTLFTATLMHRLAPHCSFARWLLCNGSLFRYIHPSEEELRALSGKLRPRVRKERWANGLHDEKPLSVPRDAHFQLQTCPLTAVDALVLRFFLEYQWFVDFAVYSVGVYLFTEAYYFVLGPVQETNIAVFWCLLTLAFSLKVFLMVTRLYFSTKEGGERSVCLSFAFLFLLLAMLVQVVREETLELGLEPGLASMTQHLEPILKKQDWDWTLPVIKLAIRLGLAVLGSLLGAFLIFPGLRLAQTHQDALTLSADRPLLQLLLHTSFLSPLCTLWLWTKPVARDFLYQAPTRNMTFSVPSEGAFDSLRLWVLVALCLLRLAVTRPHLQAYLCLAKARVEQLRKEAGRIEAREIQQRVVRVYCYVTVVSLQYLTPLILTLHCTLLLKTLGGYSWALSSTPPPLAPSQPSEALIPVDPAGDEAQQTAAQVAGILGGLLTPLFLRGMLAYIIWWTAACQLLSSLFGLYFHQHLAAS
# UniProt Q8VDK3: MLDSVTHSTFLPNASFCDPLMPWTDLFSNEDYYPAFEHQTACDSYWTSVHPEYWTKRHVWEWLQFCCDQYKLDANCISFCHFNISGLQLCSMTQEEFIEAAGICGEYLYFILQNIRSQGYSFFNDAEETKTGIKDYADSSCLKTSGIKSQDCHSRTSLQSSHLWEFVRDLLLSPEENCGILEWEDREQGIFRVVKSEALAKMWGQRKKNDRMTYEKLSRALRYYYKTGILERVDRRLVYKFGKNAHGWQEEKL
# UniProt Q8R3N1: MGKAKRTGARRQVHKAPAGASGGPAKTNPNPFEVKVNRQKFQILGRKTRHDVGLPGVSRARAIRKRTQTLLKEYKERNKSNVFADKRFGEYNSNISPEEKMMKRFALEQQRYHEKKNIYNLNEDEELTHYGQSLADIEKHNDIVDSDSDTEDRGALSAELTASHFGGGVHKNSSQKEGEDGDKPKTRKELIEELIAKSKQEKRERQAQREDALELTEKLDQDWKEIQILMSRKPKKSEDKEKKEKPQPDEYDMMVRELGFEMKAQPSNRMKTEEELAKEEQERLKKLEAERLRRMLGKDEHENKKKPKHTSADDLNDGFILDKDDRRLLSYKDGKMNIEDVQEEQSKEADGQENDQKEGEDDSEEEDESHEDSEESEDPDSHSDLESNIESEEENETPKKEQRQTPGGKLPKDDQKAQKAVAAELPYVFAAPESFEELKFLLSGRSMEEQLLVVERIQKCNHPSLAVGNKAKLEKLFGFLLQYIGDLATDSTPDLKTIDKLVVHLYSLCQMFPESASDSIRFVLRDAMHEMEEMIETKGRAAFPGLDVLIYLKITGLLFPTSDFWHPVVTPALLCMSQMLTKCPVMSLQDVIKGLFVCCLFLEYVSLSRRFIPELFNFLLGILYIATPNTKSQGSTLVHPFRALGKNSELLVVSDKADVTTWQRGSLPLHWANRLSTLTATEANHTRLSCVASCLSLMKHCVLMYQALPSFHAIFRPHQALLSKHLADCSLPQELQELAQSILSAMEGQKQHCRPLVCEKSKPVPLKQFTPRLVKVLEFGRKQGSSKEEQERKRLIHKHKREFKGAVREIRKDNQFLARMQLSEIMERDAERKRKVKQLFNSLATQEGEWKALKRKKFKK
# UniProt Q8VE62: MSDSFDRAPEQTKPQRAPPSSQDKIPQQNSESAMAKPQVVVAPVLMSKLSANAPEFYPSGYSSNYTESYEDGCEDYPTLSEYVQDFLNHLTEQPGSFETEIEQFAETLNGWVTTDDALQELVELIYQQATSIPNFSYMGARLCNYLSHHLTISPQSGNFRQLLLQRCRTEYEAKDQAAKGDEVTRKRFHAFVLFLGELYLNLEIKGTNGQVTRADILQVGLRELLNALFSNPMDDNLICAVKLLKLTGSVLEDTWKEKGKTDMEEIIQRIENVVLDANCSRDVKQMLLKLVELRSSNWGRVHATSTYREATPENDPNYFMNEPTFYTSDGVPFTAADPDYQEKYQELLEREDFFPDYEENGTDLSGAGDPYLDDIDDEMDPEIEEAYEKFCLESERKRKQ
# UniProt Q8VCX1: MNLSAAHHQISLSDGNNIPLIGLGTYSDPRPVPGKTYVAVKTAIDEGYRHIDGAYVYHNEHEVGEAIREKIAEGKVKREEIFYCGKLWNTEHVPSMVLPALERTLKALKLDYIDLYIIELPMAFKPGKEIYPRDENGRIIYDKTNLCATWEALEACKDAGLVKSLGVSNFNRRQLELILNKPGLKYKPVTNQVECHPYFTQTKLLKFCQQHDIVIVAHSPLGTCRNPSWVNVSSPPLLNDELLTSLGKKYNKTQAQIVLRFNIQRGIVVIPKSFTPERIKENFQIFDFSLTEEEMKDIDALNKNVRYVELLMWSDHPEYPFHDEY
# UniProt Q8R4R6: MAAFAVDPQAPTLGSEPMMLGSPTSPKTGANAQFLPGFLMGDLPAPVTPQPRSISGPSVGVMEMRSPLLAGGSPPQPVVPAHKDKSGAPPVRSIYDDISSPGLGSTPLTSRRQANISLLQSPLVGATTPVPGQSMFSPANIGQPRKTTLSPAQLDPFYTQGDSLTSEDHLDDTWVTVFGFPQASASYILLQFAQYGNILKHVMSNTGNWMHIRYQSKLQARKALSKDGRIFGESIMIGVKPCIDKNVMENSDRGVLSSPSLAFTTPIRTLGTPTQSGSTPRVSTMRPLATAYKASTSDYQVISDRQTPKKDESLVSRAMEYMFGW
# UniProt Q8VEJ9: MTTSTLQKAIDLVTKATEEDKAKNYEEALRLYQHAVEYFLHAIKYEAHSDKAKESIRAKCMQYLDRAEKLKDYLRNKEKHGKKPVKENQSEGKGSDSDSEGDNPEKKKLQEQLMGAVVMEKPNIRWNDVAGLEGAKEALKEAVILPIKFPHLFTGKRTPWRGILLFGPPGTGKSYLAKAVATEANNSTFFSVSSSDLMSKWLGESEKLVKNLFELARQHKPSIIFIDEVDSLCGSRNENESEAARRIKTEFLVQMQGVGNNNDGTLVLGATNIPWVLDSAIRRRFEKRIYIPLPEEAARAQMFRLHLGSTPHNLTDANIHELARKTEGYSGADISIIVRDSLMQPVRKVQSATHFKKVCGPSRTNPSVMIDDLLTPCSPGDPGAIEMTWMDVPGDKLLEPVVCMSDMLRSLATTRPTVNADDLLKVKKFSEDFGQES
# This is one part of the list. Most entries show no effect beyond the scatter of the controls.
# Compound: CN[C@@H]1C[C@H]2O[C@@](C)([C@@H]1OC)n1c3ccccc3c3c4c(c5c6ccccc6n2c5c31)C(=O)NC4 [staurosporine]
# Assay: log2 fold change of tryptic peptide abundance, ligand vs vehicle (limited proteolysis) (log2 ratio); higher = more trypsin-susceptible (destabilized)
# Conditions: ligand concentration: 20 uM; sample: mouse liver crude lysate; replicate design: treated separately
row,Target,log2 fold change
1,"UniProt Q8R404 (peptide sequence: EYSKEGWEYLKEHSK, peptide start residue: 105)",0.397
2,"UniProt Q8VDD5 (peptide sequence: CQYLQAEKKK, peptide start residue: 931)",-0.693
3,"UniProt Q8VCE4 (peptide sequence: QELQGCSR, peptide start residue: 68)",-0.101
4,"UniProt Q8VDS3 (peptide sequence: GKVEYLVK, peptide start residue: 24)",0.332
5,"UniProt Q8R3I3 (peptide sequence: LENDKEMLEALK, peptide start residue: 47)",-0.2
6,"UniProt Q8R4T1 (peptide sequence: VKGNPEDSCASEAPGNSPK, peptide start residue: 100)",0.349
7,"UniProt Q8R331 (peptide sequence: QLEALENDNFQDDPHAGLPQLGKR, peptide start residue: 31)",-0.365
8,"UniProt Q8R307 (peptide sequence: KLAGLKPTER, peptide start residue: 476)",0.464
9,"UniProt Q8R5A6 (peptide sequence: STPKVPTTPVK, peptide start residue: 44)",-0.447
10,"UniProt Q8R367 (peptide sequence: NVTLILVGNK, peptide start residue: 110)",-0.0907
11,"UniProt Q8R5C8 (peptide sequence: AWIPSENIQDITVNVHR, peptide start residue: 318)",0.214
12,"UniProt Q8VDU0 (peptide sequence: ALEYHHHDLTLAR, peptide start residue: 81)",-0.339
13,"UniProt Q8R395 (peptide sequence: YSVALVLK, peptide start residue: 202)",-0.432
14,"UniProt Q8R3H9 (peptide sequence: AVLSYSEGLK, peptide start residue: 98)",-0.115
15,"UniProt Q8VH51 (peptide sequence: KDENKLNSANGHEER, peptide start residue: 17)",-0.622
16,"UniProt Q8VBZ3 (peptide sequence: VAGIFPCPTFK, peptide start residue: 448)",0.236

row,Target,log2 fold change
1,"UniProt Q8R3J4 (peptide sequence: IEKHPDAANLLLR, peptide start residue: 164)",-0.438
2,"UniProt Q8VEG6 (peptide sequence: EKYDPPDPR, peptide start residue: 9)",0.258
3,"UniProt Q8VDM1 (peptide sequence: QALSLQLFQTEEKIER, peptide start residue: 433)",-0.33
4,"UniProt Q8VDD8 (peptide sequence: LFDAPLSISKR, peptide start residue: 210)",0.218
5,"UniProt Q8VCA6 (peptide sequence: WANGLHDEKPLSVPR, peptide start residue: 64)",-0.117
6,"UniProt Q8R2W9 (peptide sequence: ETVSKEDLAR, peptide start residue: 282)",-0.122
7,"UniProt Q8VDK3 (peptide sequence: KNDRMTYEK, peptide start residue: 208)",-0.0698
8,"UniProt Q8R3N1 (peptide sequence: HTSADDLNDGFILDKDDRR, peptide start residue: 309)",-0.15
9,"UniProt Q8VE62 (peptide sequence: FCLESER, peptide start residue: 390)",0.0708
10,"UniProt Q8VD62 (peptide sequence: QLAITHHVLSGK, peptide start residue: 164)",-0.194
11,"UniProt Q8VCX1 (peptide sequence: EEIFYCGK, peptide start residue: 79)",-0.333
12,"UniProt Q8R4R6 (peptide sequence: SPLLAGGSPPQPVVPAHKDK, peptide start residue: 66)",-0.144
13,"UniProt Q8VE42 (peptide sequence: AAYSGHIDVVR, peptide start residue: 114)",0.347
14,"UniProt Q8VEJ9 (peptide sequence: LHLGSTPHNLTDANIHELAR, peptide start residue: 305)",0.132
15,"UniProt Q8VCZ9 (peptide sequence: LCKELSAWIQRPR, peptide start residue: 169)",0.781

# Individual results from the results shown:
# log2 fold change with UniProt Q8VDK3 (peptide sequence: KNDRMTYEK, peptide start residue: 208) is entered as -0.0698
# log2 fold change with UniProt Q8VBZ3 (peptide sequence: VAGIFPCPTFK, peptide start residue: 448) is entered as 0.236
